Measurements from patent US20150284900A1, “Novel Activator for Hydrogen Peroxide and Its Application” (priority 2014, published 2015).

test: Cotton fabric bleaching using the hydrogen peroxide activators; conditions: 2 g fine cotton fabric; phosphate buffer pH 7.2; 36 mmol/L hydrogen peroxide; 0.5 g/L EDTA; 0.5 g/L SDBS; 30 mmol/L activator; 50° C. for 30 min

Question: For O=C1CCCCN1C(=O)c1cccnc1 [Activator 2], which CIE whiteness is on record?
Answer: 53.40

Question: For O=C1CCCCCN1C(=O)c1cccnc1 [Activator 3], which CIE whiteness is on record?
Answer: 52.35

Question: With O=C1CCCCCCN1C(=O)c1cccnc1 [Activator 4] as the compound, how does the CIE whiteness read?
Answer: 52.95

Question: For O=C1CCCCCCCN1C(=O)c1cccnc1 [Activator 5], which CIE whiteness is on record?
Answer: 54.55
